The values that follow come from publication PMC11042535.

Chains of the proteins cited; added tags and fusions are not shown.
UniProt P52630: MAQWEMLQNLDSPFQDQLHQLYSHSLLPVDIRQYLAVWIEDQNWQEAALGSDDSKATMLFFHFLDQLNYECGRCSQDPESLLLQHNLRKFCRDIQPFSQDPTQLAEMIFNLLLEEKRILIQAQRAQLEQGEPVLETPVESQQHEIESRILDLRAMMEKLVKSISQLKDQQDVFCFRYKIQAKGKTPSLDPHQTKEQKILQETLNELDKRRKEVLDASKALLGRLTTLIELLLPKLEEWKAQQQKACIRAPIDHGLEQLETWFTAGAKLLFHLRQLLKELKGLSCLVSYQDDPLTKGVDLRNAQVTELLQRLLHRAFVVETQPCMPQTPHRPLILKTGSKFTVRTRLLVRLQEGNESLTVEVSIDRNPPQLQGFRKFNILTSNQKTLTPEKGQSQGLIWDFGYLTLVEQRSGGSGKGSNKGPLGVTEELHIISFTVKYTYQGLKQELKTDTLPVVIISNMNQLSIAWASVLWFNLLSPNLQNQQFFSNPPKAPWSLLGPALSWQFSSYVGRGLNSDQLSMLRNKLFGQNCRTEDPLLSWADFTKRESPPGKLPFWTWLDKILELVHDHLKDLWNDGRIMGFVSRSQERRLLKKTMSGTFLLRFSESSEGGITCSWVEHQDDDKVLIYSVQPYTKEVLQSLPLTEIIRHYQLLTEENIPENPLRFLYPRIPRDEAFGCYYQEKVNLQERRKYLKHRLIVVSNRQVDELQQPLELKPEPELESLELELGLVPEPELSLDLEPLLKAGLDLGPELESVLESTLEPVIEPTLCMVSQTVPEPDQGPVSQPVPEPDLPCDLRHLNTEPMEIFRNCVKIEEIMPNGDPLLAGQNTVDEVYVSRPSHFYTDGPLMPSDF

Results are given in words; binding and its absence hold for the method and conditions named. For some of these results: In cells and extracts the contact can be indirect. Some entries that bind do so weakly or less than the wild type.

Assay [1] concerns the target T1, nuclear factor kappa B subunit 2 (NFKB2) (not stated (human cell lines HT29 and HEK-293T)) (UniProt Q00653).
T1 sequence: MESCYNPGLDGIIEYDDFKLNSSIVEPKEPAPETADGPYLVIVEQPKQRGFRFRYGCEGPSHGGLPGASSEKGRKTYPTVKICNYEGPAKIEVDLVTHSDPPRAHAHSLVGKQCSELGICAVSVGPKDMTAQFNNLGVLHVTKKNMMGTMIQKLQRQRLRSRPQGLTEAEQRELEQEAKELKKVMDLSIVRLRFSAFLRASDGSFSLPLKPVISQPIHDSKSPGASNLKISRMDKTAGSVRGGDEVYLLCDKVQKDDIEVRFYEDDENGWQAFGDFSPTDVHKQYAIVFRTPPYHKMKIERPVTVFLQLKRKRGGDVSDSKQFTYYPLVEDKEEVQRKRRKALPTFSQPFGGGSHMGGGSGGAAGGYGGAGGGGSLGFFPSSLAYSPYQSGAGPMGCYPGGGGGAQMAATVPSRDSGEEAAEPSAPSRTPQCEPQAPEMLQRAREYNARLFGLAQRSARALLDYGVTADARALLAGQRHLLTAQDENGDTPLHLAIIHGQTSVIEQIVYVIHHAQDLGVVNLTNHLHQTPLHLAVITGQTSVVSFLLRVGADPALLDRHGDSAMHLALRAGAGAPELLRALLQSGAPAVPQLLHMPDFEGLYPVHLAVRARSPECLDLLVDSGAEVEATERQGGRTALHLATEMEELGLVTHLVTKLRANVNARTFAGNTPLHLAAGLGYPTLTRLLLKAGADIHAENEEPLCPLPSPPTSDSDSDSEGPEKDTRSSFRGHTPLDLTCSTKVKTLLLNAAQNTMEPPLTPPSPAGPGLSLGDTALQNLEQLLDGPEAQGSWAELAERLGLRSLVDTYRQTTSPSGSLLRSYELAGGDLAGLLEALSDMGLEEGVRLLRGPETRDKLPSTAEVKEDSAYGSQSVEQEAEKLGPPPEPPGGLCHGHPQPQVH
As to the kind of experiment: co-IP; IP with deletion mapping: Flag-STAT2 deletions with NFKB2, and NFKB2 deletion constructs with STAT2, in HEK-293T cells.

Assay [2] deals with T1, nuclear factor kappa B subunit 2 (NFKB2) (not stated (human cell lines HT29 and HEK-293T)). In words: co-IP; IP in HEK-293T and MC38 cells overexpressing or knocked out for NFKB2; phosphorylated and total STAT2 compared.
Assay [3] shares this target. As to the kind of experiment: co-IP; immunoprecipitation assay in HT29 and HEK-293T cells.
Assay [4] shares this target. In words: Re-ChIP; two rounds of ChIP at the -171 and -458 sites of the PD-L1 promoter in HEK-293T-vector and HEK-293T-NFKB2-OE (or STAT2) cells.

Turning to “Flag-STAT2 full-length protein (from UniProt P52630 1-851)”, the binding entry in assay [1] is reported as “binds”.
Take “phosphorylated form of STAT2 (from UniProt P52630 1-851)”: the binding entry in assay [2] is listed as “binds”.
For “signal transducer and activator of transcription 2 (STAT2) (from UniProt P52630 1-851)”, the binding entry in assay [3] and in assay [4] was “binds” throughout.
